Results are given in words; binding and its absence hold for the method and conditions named. Binding seen in cells or lysates may run through a third protein. Some results given as binding are weak or reduced against the parent protein; the word gives no strength.
Target: Band 3 (human (endogenous in RBCs)) (UniProt P02730)
Test: proximity ligation

Chains of the proteins cited; added tags and fusions are not shown.
UniProt P02730: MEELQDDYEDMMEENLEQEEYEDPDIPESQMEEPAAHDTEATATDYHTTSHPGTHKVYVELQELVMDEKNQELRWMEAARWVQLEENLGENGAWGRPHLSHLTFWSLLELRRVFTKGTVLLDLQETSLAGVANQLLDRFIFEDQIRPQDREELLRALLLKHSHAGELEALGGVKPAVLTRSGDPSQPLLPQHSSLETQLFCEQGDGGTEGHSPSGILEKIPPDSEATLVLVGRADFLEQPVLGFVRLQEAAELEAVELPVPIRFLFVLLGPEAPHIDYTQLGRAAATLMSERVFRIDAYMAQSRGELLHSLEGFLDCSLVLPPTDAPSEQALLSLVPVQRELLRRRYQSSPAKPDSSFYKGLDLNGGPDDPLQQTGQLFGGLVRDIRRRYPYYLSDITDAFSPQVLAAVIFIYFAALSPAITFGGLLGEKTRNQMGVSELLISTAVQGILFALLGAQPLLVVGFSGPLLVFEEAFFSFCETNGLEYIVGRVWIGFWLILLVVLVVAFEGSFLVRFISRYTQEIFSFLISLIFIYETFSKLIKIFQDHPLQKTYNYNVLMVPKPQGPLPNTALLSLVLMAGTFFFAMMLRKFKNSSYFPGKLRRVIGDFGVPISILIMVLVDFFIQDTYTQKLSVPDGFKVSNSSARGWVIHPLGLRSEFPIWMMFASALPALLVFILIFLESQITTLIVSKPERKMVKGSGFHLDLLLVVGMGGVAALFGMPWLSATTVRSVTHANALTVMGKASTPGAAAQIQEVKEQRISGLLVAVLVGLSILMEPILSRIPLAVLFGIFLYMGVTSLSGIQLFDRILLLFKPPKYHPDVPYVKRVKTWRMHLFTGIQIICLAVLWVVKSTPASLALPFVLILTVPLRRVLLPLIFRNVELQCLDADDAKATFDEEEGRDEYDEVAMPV

binding: binds
B1: Toll-like receptor 7 (TLR7) (receptor, UniProt Q9NYK1 27-1049)
chain: ARWFPKTLPCDVTLDVPKNHVIVDCTDKHLTEIPGGIPTNTTNLTLTINHIPDISPASFHRLDHLVEIDFRCNCVPIPLGSKNNMCIKRLQIKPRSFSGLTYLKSLYLDGNQLLEIPQGLPPSLQLLSLEANNIFSIRKENLTELANIEILYLGQNCYYRNPCYVSYSIEKDAFLNLTKLKVLSLKDNNVTAVPTVLPSTLTELYLYNNMIAKIQEDDFNNLNQLQILDLSGNCPRCYNAPFPCAPCKNNSPLQIPVNAFDALTELKVLRLHSNSLQHVPPRWFKNINKLQELDLSQNFLAKEIGDAKFLHFLPSLIQLDLSFNFELQVYRASMNLSQAFSSLKSLKILRIRGYVFKELKSFNLSPLHNLQNLEVLDLGTNFIKIANLSMFKQFKRLKVIDLSVNKISPSGDSSEVGFCSNARTSVESYEPQVLEQLHYFRYDKYARSCRFKNKEASFMSVNESCYKYGQTLDLSKNSIFFVKSSDFQHLSFLKCLNLSGNLISQTLNGSEFQPLAELRYLDFSNNRLDLLHSTAFEELHKLEVLDISSNSHYFQSEGITHMLNFTKNLKVLQKLMMNDNDISSSTSRTMESESLRTLEFRGNHLDVLWREGDNRYLQLFKNLLKLEELDISKNSLSFLPSGVFDGMPPNLKNLSLAKNGLKSFSWKKLQCLKNLETLDLSHNQLTTVPERLSNCSRSLKNLILKNNQIRSLTKYFLQDAFQLRYLDLSSNKIQMIQKTSFPENVLNNLKMLLLHHNRFLCTCDAVWFVWWVNHTEVTIPYLATDVTCVGPGAHKGQSVISLDLYTCELDLTNLILFSLSISVSLFLMVMMTASHLYFWDVWYIYHFCKAKIKGYQRLISPDCCYDAFIVYDTKDPAVTEWVLAELVAKLEDPREKHFNLCLEERDWLPGQPVLENLSQSIQLSKKTVFVMTDKYAKTENFKIAFYLSHQRLMDEKVDVIILIFLEKPFQKSKFLQLRKRLCGSSVLEWPTNPQAHPYFWQCLKNALATDNHVAYSQVFKETV

From publication PMC11233670
